In PubChem BioAssay AID248 (DTP/NCI, 2004):
The list shows only some results of the screen, not a fair sample: it is rich in T/C values a quarter to a half above the control, in often repeated tests (any T/C) and in doses without a T/C. Further doses and runs are listed elsewhere. T/C: endpoint of the treated group in % of that of the vehicle group. Some entries give survivors of the animals treated and no T/C: the source files T/C as zero there, which appears to mark a toxic dose or a test without result, not a measured value. Some doses without a T/C left all or most animals alive at the check, yet need not have been tolerated: survival well below the control is almost never listed, so the zero probably covers shortened survival too. Survivors were counted at the toxicity check, usually on the fifth day, unless a day is given; later deaths do not show. Schedule codes are those of the source, read here as Q, the interval in days (D) or hours (H), X, the number of doses. Some entries hold several experiments; their values stand side by side, smallest first. Some schedules carry Z or #; the key to these is not given. Some structures stand for samples that the source files as different forms (salt, stereo form or complex); doses refer to the form tested. For survival time, the PubChem record calls one and a half times the control and up active, and a quarter to a half above the control has no call in these data; cut-offs in other NCI protocols can differ.

Test system: L1210 leukemia ip in BDF1 mice, survival T/C
Assay: NCI In Vivo Anticancer Drug Screen. Data for tumor model L1210 Leukemia (intraperitoneal) in B6D2F1 (BDF1) mice
Details: T/C endpoint: mean survival time, higher T/C = longer survival
[1] = dose: 200.0 mg/kg/injection, schedule: Q04DX003 (ip), vehicle: saline
[2] = dose: 400.0 mg/kg/injection, schedule: Q04DX003 (ip), vehicle: saline
[3] = dose: 150.0 mg/kg/injection, schedule: Q01DX001 (ip), vehicle: saline
[4] = dose: 300.0 mg/kg/injection, schedule: Q01DX001 (ip), vehicle: saline

CN(C)C(=O)c1ccc(NC(=O)N(CCCl)N=O)cc1
T/C (dose: 4.0 mg/kg/injection, schedule: Q01DX001 (ip), vehicle: other): 136 % of control
survivor count (dose: 62.0 mg/kg/injection, schedule: Q01DX001 (ip), vehicle: other): 6 of 6
survivor count (dose: 125.0 mg/kg/injection, schedule: Q01DX001 (ip), vehicle: other): 6 of 6
survivor count (dose: 187.0 mg/kg/injection, schedule: Q01DX001 (ip), vehicle: other): 0 of 6
survivor count (dose: 250.0 mg/kg/injection, schedule: Q01DX001 (ip), vehicle: other): 0 of 6
survivor count (dose: 375.0 mg/kg/injection, schedule: Q01DX001 (ip), vehicle: other): 0 of 6
survivor count (dose: 500.0 mg/kg/injection, schedule: Q01DX001 (ip), vehicle: other): 0 of 6
survivor count (dose: 750.0 mg/kg/injection, schedule: Q01DX001 (ip), vehicle: other): 0 of 6

C[C@]12CC[C@H]3[C@@H](CC[C@@H]4C[C@@H](O)CC[C@@]43C=O)[C@]13O[C@@H]3CC2c1ccc(=O)oc1 (stereo partly drawn)
survivor count (dose: 2.0 mg/kg/injection, schedule: Q01DX009 (ip), vehicle: Klucel (hydroxypropylcellulose) (HPC)): 1 of 3

CCOc1ccc(Br)cc1/C=N\N=C\c1cc(Br)ccc1OCC
survivor count [1]: 5 of 6
survivor count [2]: 5 of 6

C=CCNC(=O)c1ccccc1
survivor count (dose: 200.0 mg/kg/injection, schedule: Q04DX002 (ip), vehicle: saline with Tween-80): 3 of 3
survivor count (dose: 400.0 mg/kg/injection, schedule: Q04DX002 (ip), vehicle: saline with Tween-80): 0 of 3

CO[C@]12[C@@H](COC(=O)NCCO)C3=C(C(=O)C(C)=C(N)C3=O)N1C[C@@H]1[C@H]2N1C (stereo partly drawn)
T/C [3]: 128 % of control
T/C [4]: 130 % of control

CCCCCCCCCCCCCCCCCCSCCOCCSCCCCCCCCCCCCCCCCCC
survivor count (dose: 200.0 mg/kg/injection, schedule: Q01DX001 (ip), vehicle: Klucel (hydroxypropylcellulose) (HPC)): 6 of 6

C=CCc1ccc(OC(=O)Nc2ccccc2C)c(OC)c1
survivor count (dose: 400.0 mg/kg/injection, schedule: Q01DX009 (ip), vehicle: Klucel (hydroxypropylcellulose) (HPC)): 1 of 6

C=CCn1c(-c2cccs2)nc2c(=S)nc[nH]c21
survivor count (dose: 108.0 mg/kg/injection, schedule: Q01DX009 (ip), vehicle: steroid suspending solution): 6 of 6
survivor count (dose: 300.0 mg/kg/injection, schedule: Q01DX009 (ip), vehicle: steroid suspending solution): 5 of 6

CCSc1ccc2c(cc1=O)C(NC(=S)Nc1ccccc1)CCc1cc(OC)c(OC)c(OC)c1-2 (stereo not drawn)
survivor count (dose: 400.0 mg/kg/injection, schedule: Q04DX003 (ip), vehicle: carboxymethylcellulose (CMC)): 6 of 6

OC1COC(n2cnc3c(=S)nc[nH]c32)CC1O (stereo not drawn)
survivor count (dose: 80.0 mg/kg/injection, schedule: Q01DX001 (ip), vehicle: saline): 3 of 6
survivor count (dose: 100.0 mg/kg/injection, schedule: Q01DX001 (ip), vehicle: saline): 0 of 6
survivor count (dose: 200.0 mg/kg/injection, schedule: Q01DX001 (ip), vehicle: saline): 2 of 6
survivor count (dose: 400.0 mg/kg/injection, schedule: Q01DX001 (ip), vehicle: saline): 2 of 6

Cc1cc2oc(C)[n+](Cc3ccccc3)c2cc1C
survivor count (dose: 400.0 mg/kg/injection, schedule: Q01DX009 (ip), vehicle: saline with Tween-80): 4 of 6 and 5 of 6

O=[N+]([O-])c1ccc(S(=O)(=O)O)c([N+](=O)[O-])c1.[Ag]
survivor count (dose: 25.0 mg/kg/injection, schedule: Q01DX009 (ip), vehicle: other): 5 of 6
survivor count (dose: 50.0 mg/kg/injection, schedule: Q01DX009 (ip), vehicle: other): 0 of 6
survivor count (dose: 100.0 mg/kg/injection, schedule: Q04DX003 (ip), vehicle: other): 1 of 6
survivor count (dose: 200.0 mg/kg/injection, schedule: Q04DX003 (ip), vehicle: other): 0 of 6
survivor count (dose: 400.0 mg/kg/injection, schedule: Q04DX003 (ip), vehicle: other): 0 of 6

CC(=O)c1ccc(N2CCNCC2)cc1
survivor count (dose: 80.0 mg/kg/injection, schedule: Q01DX001 (ip), vehicle: carboxymethylcellulose (CMC)): 2 of 4
survivor count (dose: 100.0 mg/kg/injection, schedule: Q01DX001 (ip), vehicle: carboxymethylcellulose (CMC)): 0 of 4
survivor count (dose: 200.0 mg/kg/injection, schedule: Q01DX001 (ip), vehicle: carboxymethylcellulose (CMC)): 0 of 4
survivor count (dose: 400.0 mg/kg/injection, schedule: Q01DX001 (ip), vehicle: carboxymethylcellulose (CMC)): 0 of 4

CN1CCSC1S (stereo not drawn)
survivor count (dose: 100.0 mg/kg/injection, schedule: Q01DX001 (ip), vehicle: steroid suspending solution): 2 of 4
survivor count (dose: 200.0 mg/kg/injection, schedule: Q01DX001 (ip), vehicle: steroid suspending solution): 1 of 4
survivor count (dose: 400.0 mg/kg/injection, schedule: Q01DX001 (ip), vehicle: steroid suspending solution): 0 of 4

c1ccc(CCN2CCOCC2)nc1
survivor count [2]: 5 of 6

Nc1ccc(SCCC(=O)O)cc1
survivor count (dose: 150.0 mg/kg/injection, schedule: Q01DX001 (ip), vehicle: other): 3 of 6
survivor count (dose: 300.0 mg/kg/injection, schedule: Q01DX001 (ip), vehicle: other): 0 of 6 and 2 of 6

c1ccc(COc2ccc(Cc3nccc4ccccc34)cc2OCc2ccccc2)cc1
survivor count (dose: 200.0 mg/kg/injection, schedule: Q04DX003 (ip), vehicle: saline with Tween-80): 6 of 6

C=CC(OC(C)=O)OC(C)=O
survivor count (dose: 14.0 mg/kg/injection, schedule: Q01DX Z (ip), vehicle: carboxymethylcellulose (CMC)): 0 of 6
survivor count (dose: 21.0 mg/kg/injection, schedule: Q01DX Z (ip), vehicle: carboxymethylcellulose (CMC)): 0 of 6
survivor count (dose: 50.0 mg/kg/injection, schedule: Q04DX003 (ip), vehicle: saline with Tween-80): 0 of 6

O=P(N1CC1)(N1CC1)C12CC3CC(CC(C3)C1)C2
survivor count (dose: 100.0 mg/kg/injection, schedule: Q01DX009 (ip), vehicle: saline with Tween-80): 6 of 6

C[n+]1cccc2cccc(O)c21
survivor count (dose: 200.0 mg/kg/injection, schedule: Q04DX002 (ip), vehicle: Klucel (hydroxypropylcellulose) (HPC)): 1 of 3
survivor count (dose: 400.0 mg/kg/injection, schedule: Q04DX002 (ip), vehicle: Klucel (hydroxypropylcellulose) (HPC)): 1 of 3

O=C1C=C(N2CCCC2)CCC1
survivor count [4]: 0 of 6

CCC[N+](CC)(CC)CCOC(=O)C1C2CC3OC(=O)C1C3C2 (stereo not drawn)
survivor count [1]: 1 of 3
survivor count [2]: 1 of 3

CC(C)N(CCSc1ncnc2nc[nH]c12)C(C)C
survivor count [3]: 1 of 6
survivor count [4]: 0 of 6

O=C(O)/C=C/c1ccccn1
survivor count (dose: 400.0 mg/kg/injection, schedule: Q04DX003 (ip), vehicle: Klucel (hydroxypropylcellulose) (HPC)): 0 of 6
